From patent US8038984B2 (Washington University, priority 1998, dated 2011)

Assay: general procedure: Fmoc solid-phase peptide synthesis; BOP/HOBt
Conditions: whole synthesis, trifluoroacetate

Acetyl- GRKKRRQRRR-AHA- εKGC-amide
final HPLC purity: >94%

acetyl-GRKKRRQRRR-GDEVDG-εKGC-amide
final HPLC purity: >94%
